# The list shows a part of the results.
# B1: il10ra_site1_sap_18_mot_HHH_b1_00665_000000097_0001_23_39_H_._HHH_b1_06912_af2_0001_0000200007_0000001_1_0001 (protein)
# chain: SSSSDEEEERIRELLERVEELLEEGDWERASKLAQEALRLIYRANDEELLQELWEIIASNSSSSS
# B2: il10ra_site1_sap_25_mot_HHH_b2_03183_af2_000000055_0001_40_56_H_._HHH_b1_07492_0001_0000200020_0000001_0_0001 (protein)
# chain: SSSSDEAEERLEELLEEAERLLEEGDPREALRVLQEAVRFAIRAGDEETLQRIWELVKKVASSSS
# B3: il10ra_site1_normal_mot_HHH_b2_02337_000000026_0001_38_52_H_._HHH_b2_01503_0001_0000100001_0000002_0 (protein)
# chain: SSSSSEEVEELLEEARELLEKGNPEEAARVLAEAARFAHRLGDEELLQLVWELVRKVAEASSSSS
# B4: il10ra_site1_normal_mot_HHH_b1_02492_000000051_0001_1_21_H_._HHH_b1_07524_0001_0000100003_0000001_0_af2pred_0001 (protein)
# chain: SSSSSDEEFEEEVRELLEQAERTDDPQERFELLRKAIELALEGNNPELIKEVREVARRLFSSSSS
# B5: il10ra_site1_sap_20_mot_HHH_b1_01167_000000070_0001_1_20_H_._HHH_b1_00963_0001_0000100014_0000002_0_0001 (protein)
# chain: DEEEAISLAIRHQAEWAGVPSVEVSFSNGELTVTFEGDDRSVRQAILAARAMADLYRLTLTYSEE
# B6: il10ra_site1_sap_16_mot_HHH_b2_05540_000000178_0001_1_18_H_._HHH_b1_01113_af2_0001_0000100001_0000001_0_0001 (protein)
# chain: SSSSSSSELEELLEEIEEALERGDPEAAARLSVEAVELAAERDDKEVIRELQRLNREIFSSSSSS
# B7: il10ra_site1_normal_mot_HHH_b2_00441_000000147_0001_1_18_H_._HHH_b1_03644_0001_0000100004_0000001_0 (protein)
# chain: SSSSDVEEYVRLSLRFARWLFEENDEEALRRIVKAIEDLARRENSEEVQEILKEVEELLKSSSSS
# B8: il10ra_site1_sap_17_mot_HHH_b2_00066_000000124_0001_1_17_H_._HHH_b1_02981_0001_0000400024_0000001_0_0001 (protein)
# chain: SSSSSSEEYHEEVRELLEEAEHIEDPEERMRVLMEALKLAYHGKDPEALQLVWEVVRRLSSSSSS
# B9: il10ra_site1_sap_20_mot_HHH_b2_02463_af2_000000222_0001_1_19_H_._HHH_b1_03757_af2_0001_0000200004_0000001_0_0001 (protein)
# chain: SSSSDESEEVLEEAEELLKEAQERGDAQLRYRILKEAIELLLRLGDPQAAQRLAEFFIRLSSSSS
# B10: il10ra_site1_sap_15_mot_8756ee2cf497b5429c717dfc0c0bcfd6_0001_000000186_0001_1_13_H_._HHH_b1_06578_af2_0001_0000200019_0000001_0_0001_af2pred_0001 (protein)
# chain: DEEREVELILRFLARAAGVKSVSVTTENGQVTVTVENVSPEAKELIEAAVRALRLRGLNVSFSTE
# B11: il10ra_site1_normal_mot_HHH_b2_04275_000000272_0001_20_36_H_._HHH_b2_05523_af2_0001_0000200036_0000001_0 (protein)
# chain: SSSSNEEIQEAYELLEKLSEAEHNGNEEEFEKIAEEIEELIRKLGNELLRAQLEFLERLLGSSSS
# B12: il10ra_site1_normal_mot_HHH_b1_01827_000000263_0001_1_19_H_._HHH_b2_07433_0001_0000200007_0000001_0 (protein)
# chain: SSSSSTEEFRRVRELIEEALQIEDEEEARRLLQEAVELAEEGGNLVLLWSAEYALRQLEESSSSS
# B13: il10ra_site1_sap_27_mot_HHH_b2_02497_000000141_0001_1_20_H_._HHH_b2_04046_0001_0000400045_0000001_0_0001_af2pred_dldesign_0_af2pred (protein)
# chain: SSSSSEKKKQWDLLVKTYRLIKEGKLEEAKKLLEELRAAAEKSGDPTLLHAVEVLEEELESSSSS
# B14: il10ra_site1_normal_mot_2c1a291787c6f40772924d4e9068d803_0001_af2_000000222_0001_34_48_H_._HHH_b1_04001_0001_0000100002_0000001_0_af2pred_0001 (protein)
# chain: SSSSSSSEEEELLQEAARISRTASPEEIEKLLRLIIRLYKEGDPELREELEELIEEIKSSSSSSS
# B15: il10ra_site1_normal_mot_HHH_b2_04275_000000272_0001_20_36_H_._HHH_b1_07269_0001_0000400040_0000001_0 (protein)
# chain: SSSSTEESEEVYELLRELAELLHENDEEEFEEVLKEVKRLAEEANNENLRVQVEFLERALSSSSS
# B16: il10ra_site1_sap_18_mot_HHH_b2_02053_af2_000000006_0001_3_19_H_._HHH_b1_01435_af2_0001_0000300017_0000001_0_0001 (protein)
# chain: SSSSSEYEEYIRRALRFLRWLVEVGDEESLKRMQKAIETMIERLNNEELQELLEEVKKELSSSSS
# B17: il10ra_site1_normal_mot_HHH_b1_02062_000000185_0001_1_20_H_._HHH_b2_02425_0001_0000300022_0000001_1 (protein)
# chain: SSSSSTREVYELSREAARLHSEGNPEEARKVLEEAEELAEELGNLNMLATLEAVLRLLNSSSSSS
# B18: il10ra_site1_sap_26_mot_HHH_b2_06767_000000020_0001_41_56_H_._HHH_b1_04644_0001_0000100011_0000001_0_0001 (protein)
# chain: SSSSSSEEVEELIKEAEELLEQGNEEEALRVLLRALRLAFRESNAELLRQIWELLHRLKSSSSSS
# B19: il10ra_site1_normal_mot_HHH_b1_04771_000000013_0001_40_56_H_._HHH_b1_07359_0001_0000500027_0000001_0 (protein)
# chain: SSSSSSTEVLELSLKAFRALLRGNPEEARELLEEAEELARELGDEQVLRVIEELLRANSSSSSSS
# B20: il10ra_site1_sap_24_mot_HHH_b2_06602_000000226_0001_1_16_H_._HHH_b1_04775_af2_0001_0000500023_0000001_0_0001_af2pred_0001 (protein)
# chain: SSSSSQRERSVEIMLRLAELARELGDPERVKLTLRSAKIAAEAARNEELKEEIREVEEELSSSSS
# B21: il10ra_site1_sap_12_mot_HHH_b1_05699_af2_000000138_0001_41_55_H_._16d56542c9725820401ab7c11c235cbe_0001_af2_0001_0000100001_0000001_0_0001 (protein)
# chain: SSSSTREVLELVARASALASRLGDREIEKRLFQLMIEAFVTGDPELERELEELAREFLEENSSSS
# B22: il10ra_site1_sap_23_mot_HHH_b2_02354_af2_000000157_0001_40_56_H_._HHH_b1_02521_af2_0001_0000300012_0000001_0_0001_af2pred_0001 (protein)
# chain: SSSSSEEKHRVLRLISKALKLIFEGNPEEAEEVIEEARELVEELGDEKLKEALEMVLHMLESSSS
# B23: il10ra_site1_sap_30_mot_HHH_b1_02809_af2_000000277_0001_40_57_H_._HHH_b1_05733_0001_0000200016_0000002_0_0001 (protein)
# chain: SSSSSEASRRIYELLRRIVELHHEGNPEEARELIEEAKELAEEAGDRVLLWVIEWLERLVNSSSS
# B24: il10ra_site1_normal_mot_HHH_b1_01011_000000096_0001_1_19_H_._HHH_b2_02204_0001_0000300042_0000002_0_af2pred_0001 (protein)
# chain: SSSSDEEELLRRTARFAEWAIKQGDPRAAERFIRALEDLAKKLNDEEAEELVEQLKELLNSSSSS
# Biological target: il10ra, Q13651
# Experiment: yeast display titration
row,Binder,apparent Kd
1,B1,inactive: no binding seen
2,B2,inactive: no binding seen
3,B3,inactive: no binding seen
4,B4,inactive: no binding seen
5,B5,inactive: no binding seen
6,B6,inactive: no binding seen
7,B7,inactive: no binding seen
8,B8,inactive: no binding seen
9,B9,inactive: no binding seen
10,B10,inactive: no binding seen
11,B11,inactive: no binding seen
12,B12,inactive: no binding seen
13,B13,inactive: no binding seen
14,B14,inactive: no binding seen
15,B15,inactive: no binding seen
16,B16,inactive: no binding seen
17,B17,inactive: no binding seen
18,B18,inactive: no binding seen
19,B19,inactive: no binding seen
20,B20,inactive: no binding seen
21,B21,inactive: no binding seen
22,B22,inactive: no binding seen
23,B23,inactive: no binding seen
24,B24,inactive: no binding seen

# Reprinted at random: 2 entries already listed
row,Binder,apparent Kd
15,B15,inactive: no binding seen
20,B20,inactive: no binding seen
